These are yes or no findings as the source states them, for the method shown. In cells and extracts the contact can be indirect. Here binding means that the protein was enriched with, or labelled near, the bait; the list need not be complete.
Molecular target: endogenous PfMyoF (Plasmodium falciparum 3D7 (endogenous in parasite lysate)) (UniProt Q8IE50)
Test: affinity purification with mass spectrometry

By UniProt entry, the sequences of proteins in these tests, tags left out. Where a name states a change or a piece, a line headed by the entry shows the natural chain unless it says otherwise.
UniProt Q8IE50: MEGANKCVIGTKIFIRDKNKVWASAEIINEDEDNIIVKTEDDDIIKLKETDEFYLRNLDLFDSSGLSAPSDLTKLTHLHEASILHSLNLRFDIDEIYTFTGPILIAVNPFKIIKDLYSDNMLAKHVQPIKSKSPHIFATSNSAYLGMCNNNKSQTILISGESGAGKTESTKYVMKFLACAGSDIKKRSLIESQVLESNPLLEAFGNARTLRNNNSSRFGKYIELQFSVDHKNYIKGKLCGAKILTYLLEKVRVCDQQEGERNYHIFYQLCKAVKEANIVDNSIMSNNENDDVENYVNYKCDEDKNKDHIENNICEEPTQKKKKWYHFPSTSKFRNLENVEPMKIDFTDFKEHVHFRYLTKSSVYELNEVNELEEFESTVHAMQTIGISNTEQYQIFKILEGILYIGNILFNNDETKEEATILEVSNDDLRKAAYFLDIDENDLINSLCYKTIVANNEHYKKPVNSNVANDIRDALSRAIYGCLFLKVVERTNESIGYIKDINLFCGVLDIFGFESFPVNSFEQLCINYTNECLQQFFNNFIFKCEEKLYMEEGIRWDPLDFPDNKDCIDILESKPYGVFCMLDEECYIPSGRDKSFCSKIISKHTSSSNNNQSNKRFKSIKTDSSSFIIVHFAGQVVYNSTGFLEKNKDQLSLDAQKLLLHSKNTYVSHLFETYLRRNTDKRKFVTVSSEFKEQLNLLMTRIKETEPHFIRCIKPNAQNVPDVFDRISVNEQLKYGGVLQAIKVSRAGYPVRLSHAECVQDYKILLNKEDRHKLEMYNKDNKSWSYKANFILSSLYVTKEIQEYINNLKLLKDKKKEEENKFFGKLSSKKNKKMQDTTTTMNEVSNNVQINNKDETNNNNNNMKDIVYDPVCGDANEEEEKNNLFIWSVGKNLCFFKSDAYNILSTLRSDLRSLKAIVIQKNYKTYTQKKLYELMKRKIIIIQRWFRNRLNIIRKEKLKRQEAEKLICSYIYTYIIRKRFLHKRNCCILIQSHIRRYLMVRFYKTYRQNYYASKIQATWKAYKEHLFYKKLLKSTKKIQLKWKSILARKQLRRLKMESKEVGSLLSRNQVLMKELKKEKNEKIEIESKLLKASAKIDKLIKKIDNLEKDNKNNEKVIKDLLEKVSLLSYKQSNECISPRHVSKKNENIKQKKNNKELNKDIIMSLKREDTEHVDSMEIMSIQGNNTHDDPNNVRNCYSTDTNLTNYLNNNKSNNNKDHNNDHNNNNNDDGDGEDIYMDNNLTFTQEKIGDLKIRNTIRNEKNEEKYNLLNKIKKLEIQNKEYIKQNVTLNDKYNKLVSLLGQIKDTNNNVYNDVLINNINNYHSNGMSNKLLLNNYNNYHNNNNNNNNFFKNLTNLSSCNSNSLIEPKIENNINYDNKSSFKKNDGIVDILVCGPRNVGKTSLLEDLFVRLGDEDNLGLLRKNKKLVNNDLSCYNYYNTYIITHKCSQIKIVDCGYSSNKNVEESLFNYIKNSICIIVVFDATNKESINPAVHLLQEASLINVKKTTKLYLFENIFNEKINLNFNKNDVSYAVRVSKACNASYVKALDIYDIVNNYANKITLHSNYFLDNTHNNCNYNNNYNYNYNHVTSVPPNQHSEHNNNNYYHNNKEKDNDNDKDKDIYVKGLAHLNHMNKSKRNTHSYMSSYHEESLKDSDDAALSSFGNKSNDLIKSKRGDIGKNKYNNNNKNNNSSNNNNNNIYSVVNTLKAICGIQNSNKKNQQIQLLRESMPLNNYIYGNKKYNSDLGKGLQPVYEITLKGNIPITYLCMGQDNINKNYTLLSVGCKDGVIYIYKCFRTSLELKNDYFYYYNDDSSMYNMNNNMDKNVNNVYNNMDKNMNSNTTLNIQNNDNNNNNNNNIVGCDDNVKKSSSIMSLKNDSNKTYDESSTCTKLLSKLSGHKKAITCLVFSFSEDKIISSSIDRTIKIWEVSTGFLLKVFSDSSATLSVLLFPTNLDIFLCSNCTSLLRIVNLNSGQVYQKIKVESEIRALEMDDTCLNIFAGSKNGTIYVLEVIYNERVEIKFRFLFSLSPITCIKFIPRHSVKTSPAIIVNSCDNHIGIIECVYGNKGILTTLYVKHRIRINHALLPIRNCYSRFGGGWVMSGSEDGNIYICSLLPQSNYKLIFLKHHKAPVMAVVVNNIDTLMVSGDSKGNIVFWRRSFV
UniProt C6KT34: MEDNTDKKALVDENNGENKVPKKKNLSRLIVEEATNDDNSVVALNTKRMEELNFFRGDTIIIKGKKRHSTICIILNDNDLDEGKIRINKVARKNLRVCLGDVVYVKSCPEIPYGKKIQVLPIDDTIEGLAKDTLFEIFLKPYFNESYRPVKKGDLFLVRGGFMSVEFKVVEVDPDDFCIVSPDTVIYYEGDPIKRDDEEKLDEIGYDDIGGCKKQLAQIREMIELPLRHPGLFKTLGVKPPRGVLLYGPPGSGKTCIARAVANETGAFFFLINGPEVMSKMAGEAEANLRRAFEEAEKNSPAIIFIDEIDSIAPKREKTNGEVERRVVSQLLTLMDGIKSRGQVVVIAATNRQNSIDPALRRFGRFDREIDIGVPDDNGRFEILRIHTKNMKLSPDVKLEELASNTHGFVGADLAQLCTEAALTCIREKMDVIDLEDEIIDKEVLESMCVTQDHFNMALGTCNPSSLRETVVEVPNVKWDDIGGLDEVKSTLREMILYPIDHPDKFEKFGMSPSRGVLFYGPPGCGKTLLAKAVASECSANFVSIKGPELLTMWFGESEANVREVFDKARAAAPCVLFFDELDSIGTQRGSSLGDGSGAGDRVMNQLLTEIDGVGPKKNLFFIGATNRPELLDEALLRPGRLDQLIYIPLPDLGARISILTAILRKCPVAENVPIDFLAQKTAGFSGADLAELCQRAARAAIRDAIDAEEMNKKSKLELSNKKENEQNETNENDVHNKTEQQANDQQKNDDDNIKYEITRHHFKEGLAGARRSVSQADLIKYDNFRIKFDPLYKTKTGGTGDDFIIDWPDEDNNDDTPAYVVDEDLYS

Row | binding | Molecule
1 | binds | PF3D7_0619400 (from UniProt C6KT34)
2 | binds | PfRab18 (protein, UniProt Q8T324 1-201) MKNKNKYDYLLKLLLVGDSSVGKSSILCRYSDNQFEEKVLSTIGIDFKVKYLKIDNKTIKVGIWDTAGQERFRTLTSAYYRNAHAIILVYDCTVRESFENLDVWINEIDKYSTNKNAIKMLVANKIDKPNHEVTKDEGKNFAFENNMLFCETSAKNDINITYCFEELIQQILNNPSLLELSIVTKNLKLGKKEESRSNCAC

Reference: doi:10.1101/2025.11.10.687607
